For 1 molecule, Ki results are on record in patent US6875761B2 (Eisai Co., Ltd., priority 1997, dated 2005).

Each structure is given as a SMILES string. Counter-ions that a name gives are not always drawn.

One assay addresses T1, serotonin 1A receptor (Rattus norvegicus, UniProt P19327).
T1 construct: To the receptor fraction of the hippocampus were added a test compound and 0.5 nM of [^3H]; 8-hydroxy-dipropylaminotetralin; from tissue; host or cells: rat hippocampus membrane fraction
T1 sequence (P19327 1-422): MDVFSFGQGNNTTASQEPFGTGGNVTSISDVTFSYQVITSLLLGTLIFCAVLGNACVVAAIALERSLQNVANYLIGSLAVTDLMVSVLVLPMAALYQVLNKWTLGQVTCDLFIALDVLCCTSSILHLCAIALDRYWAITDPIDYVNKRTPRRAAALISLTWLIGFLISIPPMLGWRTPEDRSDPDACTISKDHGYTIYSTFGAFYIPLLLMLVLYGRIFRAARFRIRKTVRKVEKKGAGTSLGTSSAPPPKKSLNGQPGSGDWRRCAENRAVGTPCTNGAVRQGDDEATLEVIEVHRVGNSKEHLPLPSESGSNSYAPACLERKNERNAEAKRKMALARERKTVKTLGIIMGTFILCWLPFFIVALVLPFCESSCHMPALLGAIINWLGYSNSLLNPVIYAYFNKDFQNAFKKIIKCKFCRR
Description: Binding test on [3H] 8-hydroxy-dipropylaminotetralin, hippocampus receptor fraction. Also on record: species or system SD rats.

A further assay has as its target α1 adrenalin receptor. Description: Binding test on [3H] prazosin, cerebral cortex receptor fraction. Also on record: species or system SD rats. Particulars: rat cerebral cortex receptor fraction, about 0.2 nM [3H] prazosin, room temperature 60 min; read-out: α 1. As to the method: (1) Binding test on serotonin 1A, serotonin 2 and α1 adrenalin receptors
As radioisotope-labeled compounds, use was made of the following reagents (mfd. by NEN). • 3) [^3H] 8-Hydroxy-dipropylaminotetralin (8-OH-DPAT). • 4) [^3H] Ketanserin hydrochloride. • 5) [^3H] Prazosin.
These compounds and test compounds, when insoluble in water, were dissolved in ethanol and then diluted with distilled water so as to each give an ethanol concentration of 10%. Methysergide maleate was dissolved in distilled water before using.
Use was made of SD rats aged 6 to 8 weeks.
The rats were sacrificed by dcapitation to extirpate the cerebra. […]
IC50 was calculated by the probit method, while Ki was determined in accordance with the following formula: Ki=IC50(1+c/Kd) wherein c represents the concentration of the radioisotope-labeled compound, and Kd represents the dissociation constant of the radioisotope-labeled compound with respect to the receptor determined by Scatchard's analysis. […]
To the receptor fraction of the cerebral cortex were added a test compound and about 0.2 nM of [^3H] prazosin and the resultant mixture was incubated at room temperature for 60 min. […] After washing the glass filter with 50 mM Tris hydrochloride (pH 7.4), the radioactivity of the receptor was measured with a liquid scintillation counter. […]

With `CN1CCC(=C2c3ccccc3C=Cc3ccccc32)CC1` [Cyproheptadine, cyproheptadine hydrochloride, reference compound], the Ki at serotonin 1A receptor turned out to be 0.0295 µM; at α1 adrenalin receptor, 1.9 µM.
